According to patent publication US20120034613A1, “Apparatus and Method for Testing Relationships Between Gene Expression and Physical Appearance of Skin” (NSE Products, Inc., priority 2010, published 2012):
The source gives many values for each of these; only a part stands here.

System: EpidermFT™ Skin Model (EFT-400) full thickness skin cultures
Test: Affymetrix GeneChip HG U133 Plus 2.0 microarray global gene expression, agent-exposed vs untreated skin cultures
Format: cell-based, human
Settings: Salicin 0.5%, 24 hr

For `OCc1ccccc1O[C@@H]1O[C@H](CO)[C@@H](O)[C@H](O)[C@H]1O` [Salicin, 2-(Hydroxymethyl)phenyl β-D-glucospyranoside], the Fold change (218541_s_at C8orf4) was 2.239, the Direction (218772_x_at TMEM38B) was “up” and the Fold change (218772_x_at TMEM38B) was 2.296. For the same molecule, the Direction (219374_s_at ALG9) was “up”, the Fold change (219374_s_at ALG9) was 2.062 and the Direction (219390_at FKBP14) was “up”. The Fold change (219390_at FKBP14) was 2.241, the Direction (219500_at CLCF1) was “up” and the Fold change (219500_at CLCF1) was 2.165. For the same molecule, the Direction (219631_at LRP12) was “up”, the Fold change (219631_at LRP12) was 2.181 and the Direction (219682_s_at TBX3) was “up”. The Fold change (219682_s_at TBX3) was 2.052, the Direction (219910_at FICD) was “up” and the Fold change (219910_at FICD) was 2.221. For the same molecule, the Direction (219985_at HS3ST3A1) was “up”, the Fold change (219985_at HS3ST3A1) was 2.209 and the Direction (220092_s_at ANTXR1) was “up”. The Fold change (220092_s_at ANTXR1) was 2.229, the Direction (220254_at LRP12) was “up” and the Fold change (220254_at LRP12) was 2.223. For the same molecule, the Direction (220301_at CCDC102B) was “up”, the Fold change (220301_at CCDC102B) was 2.17 and the Direction (220745_at IL19) was “up”. The Fold change (220745_at IL19) was 2.278, the Direction (220980_s_at ADPGK) was “up” and the Fold change (220980_s_at ADPGK) was 2.057. For the same molecule, the Direction (221059_s_at COTL1) was “up”, the Fold change (221059_s_at COTL1) was 2.064 and the Direction (221918_at PCTK2) was “up”. The Fold change (221918_at PCTK2) was 2.268, the Direction (221958_s_at GPR177) was “up” and the Fold change (221958_s_at GPR177) was 2.21. The Direction (221978_at HLA-F) was “up”, the Fold change (221978_at HLA-F) was 2.208 and the Direction (222619_at ZNF281) was “up”. The Fold change (222619_at ZNF281) was 2.223, the Direction (222731_at ZDHHC2) was “up” and the Fold change (222731_at ZDHHC2) was 2.053. The Direction (222802_at EDN1) was “up”, the Fold change (222802_at EDN1) was 2.26 and the Direction (223222_at SLC25A19) was “up”. For the same molecule, the Fold change (223222_at SLC25A19) was 2.243, the Direction (223296_at SLC25A33) was “up” and the Fold change (223296_at SLC25A33) was 2.176. For the same molecule, the Direction (223315_at NTN4) was “up”, the Fold change (223315_at NTN4) was 2.241 and the Direction (223463_at RAB23) was “up”. For the same molecule, the Fold change (223463_at RAB23) was 2.249, the Direction (223866_at ARMC2) was “up” and the Fold change (223866_at ARMC2) was 2.208. The Direction (224455_s_at ADPGK) was “up”, the Fold change (224455_s_at ADPGK) was 2.259 and the Direction (224523_s_at C3orf26) was “up”. For the same molecule, the Fold change (224523_s_at C3orf26) was 2.235, the Direction (224826_at RP5-1022P6.2) was “up” and the Fold change (224826_at RP5-1022P6.2) was 2.298. The Direction (225174_at DNAJC10) was “up”, the Fold change (225174_at DNAJC10) was 2.203 and the Direction (225589_at SH3RF1) was “up”. The Fold change (225589_at SH3RF1) was 2.254, the Direction (226001_at KLHL5) was “up” and the Fold change (226001_at KLHL5) was 2.175. The Direction (226337_at SCYL1BP1) was “up”, the Fold change (226337_at SCYL1BP1) was 2.211 and the Direction (226890_at WDR35) was “up”. For the same molecule, the Fold change (226890_at WDR35) was 2.236, the Direction (227027_at GFPT1) was “up” and the Fold change (227027_at GFPT1) was 2.067. The Direction (227220_at NFXL1) was “up”, the Fold change (227220_at NFXL1) was 2.19 and the Direction (227294_at ZNF689) was “up”. For the same molecule, the Fold change (227294_at ZNF689) was 2.176, the Direction (227351_at C16orf52) was “up” and the Fold change (227351_at C16orf52) was 2.221. The Direction (227445_at ZNF689) was “up”, the Fold change (227445_at ZNF689) was 2.243 and the Direction (227621_at WTAP) was “up”. The Fold change (227621_at WTAP) was 2.282, the Direction (227658_s_at PLEKHA3) was “up” and the Fold change (227658_s_at PLEKHA3) was 2.065. The Direction (227660_at ANTXR1) was “up”, the Fold change (227660_at ANTXR1) was 2.179 and the Direction (228368_at ARHGAP20) was “up”. The Fold change (228368_at ARHGAP20) was 2.259, the Direction (228423_at MAP9) was “up” and the Fold change (228423_at MAP9) was 2.27. The Direction (228653_at SAMD5) was “up”, the Fold change (228653_at SAMD5) was 2.259 and the Direction (228986_at OSBPL8) was “up”.
